Measurements: article PMC11087482, “Discovering allatostatin type-C receptor specific agonists” (Nature Communications, 2024)
Positions of bridges follow the written chain, without caps; N, C: chain ends. Non-standard residues stand in square brackets, D forms with d. Residues, ends and D or L forms follow the SMILES beside them. pGlu = O=C1CC[C@@H](C(=O)O)N1

System: T. pityocampa larvae
Assay: Toxicity tests, topical application on second instar larvae
Type: in vivo
Conditions: Probit analysis, day 14 mortality
Protocol: Pine processionary moth 2nd instar larvae of Thaumetopoea pityocampa for toxicity tests, adult, and 1st instar larvae of predator Calosoma sycophanta, 2nd instar larvae of potato beetle Leptinotarsa decemlineata were used for side effect assays.
T. pityocampa larvae were collected from red pine trees, Pinus brutia, in Nallıhan district of Ankara, Türkiye, in 2021. Larvae were cultured in 60 (±10) % humidity, 27 (±2) °C, and 16:8 light: dark photoperiod and were fed with red pine needles.
Stock solutions of the molecules were dissolved in DMSO, AST-C peptide was dissolved in PBS supplemented with 0.1% BSA pH 7.4. Dilutions were prepared in PBS supplemented with 0.1% BSA pH 7.4 in 50, 100, 250, 500, 750, and 1000 ppm (mg/L) concentrations and later placed in an ultrasonic bath (Sonorex, Bandelin) for ~10 min at 37 °C until all precipitates had vanished. Toxicity tests were conducted 1 day after larvae collection. 5 µL of doses were applied on the dorsal surface of the head-prothorax junction topically. […] Two negative control groups were prepared as PBS-applied and no application. Following the procedures, larvae were fed with 15 g P. brutia needles. Experiments were carried out on 10 larvae for each dosage, with three repeats.
Insect deaths were evaluated on the 3rd, 7th, and 14th days in toxicity and side effect experiments. The ones that were not feeding or not responding by a movement to stimulation with a soft-tipped brush were accepted as dead. Percentage mortality values generated on the 14th day were corrected using Abbott’s formula[84]. Statistical analyses were executed with IBM SPSS Statistics (v26.0) and R Studio (2022.02.0), and two-way ANOVA and Tukey test were performed to detect the data’s statistical significance. Lethal concentration values of LC50–90 (dose that produces 50-90% mortality in the population) with 95% confidence intervals (CI) and slopes were obtained using PoloPlus software (LeOra Software, USA) for mortality values assessed on the 14th day for T. pityocampa and the 3rd day for L. decemlineata. The LC50–90 values were considered to be similar if their 95% CIs overlapped (P > 0.05)[85]. Analysis between-subject effects on T. pityocampa larva length; one-way ANOVA tests assessing the impacts of molecule treatment on T. pityocampa larvae on larva length; and analysis of between-subjects effects on T. pityocampa head capsule width, alongside one-way ANOVA tests regarding the effects of molecule treatment on T. pityocampa larvae to head capsule width are detailed in the Source Data File (Source Data Supplementary Data Tables 1–4). Source data is available as Source Data File.

| Compound | Slope ± SE |
| --- | --- |
| O=C1c2n[nH]c(-c3ccccc3O)c2C(c2cccc(Oc3ccccc3)c2)N1CC1CCCO1 (centres unmarked) [D074-0013] | 0.377 ± 0.266 |
| CC[C@H](C)[C@@H]1NC(=O)[C@@H]2CCCN2C(=O)[C@H](CC(N)=O)NC(=O)[C@H](Cc2ccccc2)NC(=O)[C@H](Cc2ccc(O)cc2)NC(=O)[C@@H](NC(=O)[C@H](CCC(N)=O)NC(=O)[C@H](CCCNC(=N)N)NC(=O)[C@H](Cc2ccccc2)NC(=O)[C@H](CCCNC(=N)N)NC(=O)[C@@H](NC(=O)[C@@H]2CCC(=O)N2)C(C)C)CSSC[C@@H](C(=O)N[C@@H](Cc2ccccc2)C(=O)O)NC(=O)[C@H](CO)NC1=O [AST-C, reference compound] ([pGlu]VRFRQCYFNPISCF-OH; disulfide 7-14; C-terminus assumed) | 1.803 ± 0.299 |
| COc1ccc([C@H](CC(=O)NCc2ccncc2)c2cn(Cc3ccc(C)cc3)c3ccccc23)cc1OCc1ccccc1 [V029-3547] | 3.704 ± 0.871 |
| O=C1c2n[nH]c(-c3ccccc3O)c2C(c2cccc(OCc3ccccc3)c2)N1CC1CCCO1 (centres unmarked) [D074-0034] | 0.736 ± 0.262 |
| O=C(C[C@@H]1NC(=O)c2ccccc2NC1=O)NCCn1c(=O)c(O)nc2ccccc21 [J100-0311] | 1.916 ± 0.429 |
